Results deposited as PubChem BioAssay AID1259308 (NCATS, 2017).
This is one part, drawn at random, of about 59,000 reagents tested. Of all reagents, about 1,510 (2.6%) are marked active. 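Calls use total luciferase alone and ignore viability, so some active siRNAs may act by altering cell number.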 The numbers tell different reagents against one gene apart. Further read-outs or replicates are left out here.

Assay: 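Candidate targets for better recombinant protein yield in mammalian cells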 (primary screen)
Cell system: human HEK293 embryonic kidney cells stably expressing firefly luciferase (HEK-CMV-Luc2-Hygro)
Reagents: single siRNA against human genes, 0.8 pmol siRNA per well
Timing: 72 h
Measurement: 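Luciferase light (ONE-Glo) measured on one replicate plate set and viability (CellTiter-Glo) on the other, scaled to a negative control siRNA, with robust z-scores and luciferase per cell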
Reading the numbers: total luciferase, z-score and total luciferase, % of control: higher = more reporter protein produced
Rule for the call: 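Active when the median/MAD z-score for overall luciferase is greater than 3; a gene was taken forward for validation with new siRNAs if at least two of its three siRNAs passed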
Meaning of the calls: active = raised luciferase; inactive = no rise

no.	target gene	reagent no.	total luciferase, z-score	total luciferase, % of control	Outcome
1	SS18	1	-0.739	67.2	inactive
2	SS18	2	-0.42	73.5	inactive
3	SS18	3	-1.48	52.4	inactive
4	AR	1	0.498	91.8	inactive
5	AR	2	0.217	86.2	inactive
6	AR	3	-0.0689	80.5	inactive
7	GRIN2D	1	-0.681	68.3	inactive
8	GRIN2D	2	1.09	104	inactive
9	GRIN2D	3	0.102	83.9	inactive
10	GNGT1	1	-0.912	63.7	inactive
11	GNGT1	2	0.866	99.1	inactive
12	GNGT1	3	0.203	85.9	inactive
13	SPRING1	1	-0.546	71	inactive
14	SPRING1	2	-0.0581	80.7	inactive
15	SPRING1	3	1.69	115	inactive
16	NLRP2	1	-0.411	73.7	inactive
17	NLRP2	2	0.259	87	inactive
18	NLRP2	3	0.304	87.9	inactive
19	CDK13	1	-1.34	55.3	inactive
20	CDK13	2	1.69	116	inactive
21	CDK13	3	0.916	100	inactive
22	OR4P4	1	0.339	88.6	inactive
23	OR4P4	2	1.43	110	inactive
24	OR4P4	3	-0.654	68.9	inactive
